The test system of the assay is HEK293A TEAD-LUC reporter. In words: TEAD-luciferase reporter activity (YAP activation), robust Z score vs plate; higher = stronger YAP/TEAD activation. To be noted: 24 h.

Counter-ions that a name gives are not always drawn. The list shows a part of the results. This data set is noisy: repeats of one test often differ as much as different tests do.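 The human kidney-derived cells carry a stably integrated construct of eight TEAD-binding elements driving luciferase, read by luminescence in a drug-repurposing library screen. A compound counts as a hit when its signal is more than five robust Z scores above the plate mean.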

The values that follow come from the supplement of paper PMC10735217.

Regarding `COc1cc2ncnc(Nc3cccc(Br)c3)c2cc1OC`, the TEAD-luciferase reporter activity was inactive: -0.573 (compound concentration: 200 nM), inactive: -0.919 (compound concentration: 2 uM) and inactive: -0.411 (compound concentration: 10 uM).
On the same counts, the results for `CC(C)(COC(=O)c1cccnc1)[C@@H](OC(=O)c1cccnc1)C(=O)NCCC(=O)NCCSSCCNC(=O)CCNC(=O)[C@H](OC(=O)c1cccnc1)C(C)(C)COC(=O)c1cccnc1` [Derpanicate] are inactive: -1.66, inactive: -0.434 and inactive: -0.614.
On the same counts, the results for `COC(=O)N[C@H](C(=O)N1CCC[C@H]1c1nc(-c2ccc3cc(-c4ccc5[nH]c([C@@H]6CCCN6C(=O)[C@@H](NC(=O)OC)C(C)C)nc5c4)ccc3c2)c[nH]1)C(C)C` [Ravidasvir] are inactive: 1.21, inactive: 0.814 and inactive: 2.25.
The corresponding values for `CCCCc1nc2cc(-c3cccc[n+]3[O-])c(C)nc2n1Cc1ccc(-c2ccccc2-c2nnn[nH]2)cc1` are inactive: 2.07, inactive: -1.52 and inactive: 1.83.
As for `CN(C)CC(O)Cc1cccc(Cl)c1` (stereo unspecified), the TEAD-luciferase reporter activity by setting is: (compound concentration: 200 nM) inactive: -0.55; (compound concentration: 2 uM) inactive: -0.0968; (compound concentration: 10 uM) inactive: -1.39.
The corresponding values for `CC(CC(=O)O)NC(=O)CN1CCCCCC1=O` (stereo unspecified) are inactive: -1.22, inactive: 0.503 and inactive: -0.501.
For `CN1c2ccccc2Sc2ccc(CC(=O)O)cc21`, the TEAD-luciferase reporter activity by setting is: (compound concentration: 200 nM) inactive: 0.25; (compound concentration: 2 uM) inactive: -0.463; (compound concentration: 10 uM) inactive: -0.601.
On the same counts, the results for `CCOC(=O)COc1cccc([C@@H]2CCC[C@@H](NCC(O)c3cccc(Cl)c3)C2)c1` (stereo partly specified) are inactive: 0.703, inactive: -0.269 and inactive: -0.612.
On the same counts, the results for `CC(=O)c1ccc([C@H]2C[C@@]3(C)[C@@H](CC[C@@]3(O)C(F)(F)C(F)(F)F)[C@@H]3CCC4=CC(=O)CCC4=C32)cc1` [Lonaprisan] are inactive: 0.616, inactive: 2.21 and inactive: 2.7.
Regarding `Nc1c2c(nc3c1CCC3)CCCC2` [ipidacrine hydrochloride], the TEAD-luciferase reporter activity (compound concentration: 2 uM) was inactive: -1.42.
Take `Nc1c2c(nc3c1CCC3)CCCC2`: the TEAD-luciferase reporter activity was inactive: -2.24 (compound concentration: 200 nM) and inactive: 0.0489 (compound concentration: 10 uM).
The corresponding values for `O=C1Nc2ccccc2CC12CCCN(CC1CCCCC1)C2` (stereo unspecified) are inactive: -0.654 and inactive: 1.76.
As for `CC(=O)Oc1cccc2sc(-c3ccc(C)cc3)nc12`, the TEAD-luciferase reporter activity reads like this: (compound concentration: 200 nM) inactive: -0.899; (compound concentration: 2 uM) inactive: 0.735; (compound concentration: 10 uM) inactive: -0.348.
On the same counts, the results for `COc1cccc(CCN(C)CCCC(C#N)(c2ccc(OC)c(OC)c2)C(C)C)c1` (stereo unspecified) are inactive: -0.24, inactive: -1.28 and inactive: -1.01.
As to `COc1c2occc2cc2ccc(=O)oc12` [Methoxsalen298-81-7], the TEAD-luciferase reporter activity was inactive: 1.2 (compound concentration: 200 nM) and inactive: 0.97 (compound concentration: 10 uM).
As for `COc1c2occc2cc2ccc(=O)oc12` [methoxsalen, Toronto], the TEAD-luciferase reporter activity (compound concentration: 2 uM) is inactive: -1.2.
